# According to PubChem BioAssay AID1671190 (National Center for Advancing Translational Sciences (NCATS), 2021):
# By UniProt entry, the sequences of proteins in these tests, tags left out.
# UniProt P18054, whole entry, looked up: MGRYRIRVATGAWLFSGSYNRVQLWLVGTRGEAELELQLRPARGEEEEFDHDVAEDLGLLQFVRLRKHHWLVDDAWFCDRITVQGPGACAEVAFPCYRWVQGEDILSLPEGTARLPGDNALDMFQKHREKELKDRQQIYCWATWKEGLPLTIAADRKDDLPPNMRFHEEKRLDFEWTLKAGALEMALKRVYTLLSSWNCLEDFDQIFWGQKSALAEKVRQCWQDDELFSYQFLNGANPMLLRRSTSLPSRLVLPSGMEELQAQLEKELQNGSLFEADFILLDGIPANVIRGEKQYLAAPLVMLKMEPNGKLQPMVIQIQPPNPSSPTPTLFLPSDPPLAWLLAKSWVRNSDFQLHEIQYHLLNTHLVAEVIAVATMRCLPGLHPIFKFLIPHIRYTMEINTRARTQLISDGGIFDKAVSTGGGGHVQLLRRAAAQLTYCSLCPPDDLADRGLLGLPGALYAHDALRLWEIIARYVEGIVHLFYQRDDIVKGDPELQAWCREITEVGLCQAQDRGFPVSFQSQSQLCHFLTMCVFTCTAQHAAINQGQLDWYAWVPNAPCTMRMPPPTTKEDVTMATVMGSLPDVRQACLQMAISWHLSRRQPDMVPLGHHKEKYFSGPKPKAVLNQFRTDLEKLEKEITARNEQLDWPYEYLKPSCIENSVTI
# The campaign covered roughly 580,000 compounds. About 6,100 (1.1%) were called active. Inconclusive means that the source gave no clear call. Such entries were picked first, then a sample of the others. The call rests on the fitted dose curve; in most records, active means well fitted inhibition curve with a large enough effect; inconclusive means small, poorly fitted or top-dose-only effect, or another doubt; inactive means no such curve, though single readings can be large or run the other way. A potency beside an inconclusive call is a rough fit, not a confirmed value.
# Target: Polyunsaturated fatty acid lipoxygenase ALOX12 (Homo sapiens) (UniProt P18054)
# Assay: Primary qHTS assay for inhibitors of human arachidonate 12S-lipoxygenase (ALOX12): Round 2
# Conditions: purified 12hLO, xylenol orange hydroperoxide absorbance; series mostly up to 108 µM
# Outline: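 Purified human 12hLO (150 nM final) in 25 mM Hepes, 0.01% Triton X-100, pH 7.0 was preincubated 15 min at room temperature with compound. Then 40 uM arachidonic acid was added, 30 min. Hydroperoxide was read by Fe-XO absorbance ratio 573/405 nm.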
# Potency means the concentration at half of the fitted maximal effect.
row,SMILES,Potency
1,CN1CCN(c2oc(COc3ccc(Cl)cc3Cl)nc2C#N)CC1,inactive
2,COc1ccc(C(=O)N[C@@H]2CCC[C@@H]2C(=O)NCCc2ccc(OC)c(OC)c2)cc1,"inconclusive: 12.6 µM [inhibitor, partial curve]"
3,S=c1[nH]nc(-c2ccc(Cl)cc2)n1-c1ccc2c(c1)OCCO2,"inconclusive: 44.7 µM [inhibitor, partial curve, poor fit]"
4,O=C(/C=C/c1ccc(-c2ccc(Cl)c(Cl)c2)o1)c1ccc(Br)cc1,active: 12.6 µM
5,C[C@@H]1CN([C@H](C)CO)C(=O)c2cc(NC(=O)Nc3ccc(F)cc3)ccc2O[C@@H](C)CCCCO[C@H]1CN(C)Cc1ccc(C(=O)O)cc1,inactive
6,O=C(CCc1c[nH]c2ccccc12)NCC#Cc1cccc(C(F)(F)F)c1,inactive
7,Fc1cccc(Nc2c3c(nc4ccccc24)CCC3)c1,"inconclusive: 35.5 µM [inhibitor, single point]"
8,Cn1nnnc1NCc1ccc(-c2cccc(Cl)c2)o1,"inconclusive: 31.6 µM [inhibitor, partial curve, poor fit]"
9,Cc1ccc(C(=O)NN2C(=O)CSC2=S)cc1,inactive
10,Cc1nn2c(c1-c1ccccc1OCc1ccccc1)N(Cc1ccc(C(=O)O)s1)CCC2,inactive
11,C=CCN1C=C2C(=O)C(C)(OC(=O)C3CCCC3)C(=O)C=C2C=C1c1ccsc1 (stereo not drawn),"inconclusive: 31.6 µM [inhibitor, full curve, poor fit]"
12,Cc1ccc(C(=O)Nc2nnc(CC(=O)N/N=C/c3ccc(O)c(O)c3)s2)cc1,"inconclusive: 0.316 µM [inhibitor, full curve, poor fit]"
13,CN(C)CCNC(=O)COc1ccc(C23CC4CC(CC(C4)C2)C3)cc1,"inconclusive: 39.8 µM [inhibitor, partial curve]"
14,Cn1cccc1-c1nc2ccc(NC(=O)c3cccs3)cc2[nH]1,inactive
15,CCCC(=O)C1=C(c2ccccc2)C(C#N)(C#N)C(C#N)=C1N,"inconclusive: 56.2 µM [inhibitor, partial curve, poor fit]"
16,CCc1c(C(=O)Nc2ccccc2)c(C)[nH]c(=S)c1C#N,active: 3.98 µM
17,CCOC(=O)c1cn[nH]c1S(=O)(=O)N1CCCC1,"inconclusive: 44.7 µM [inhibitor, partial curve, poor fit]"
18,CCCC(=O)NC(c1ccc(OC)c(OC)c1)c1cc(Cl)c2cccnc2c1O (stereo not drawn),"inconclusive: 112 µM [inhibitor, partial curve, poor fit]"
19,Cc1cc(NS(=O)(=O)c2ccc(NC(=O)Nc3cccc(Cl)c3)cc2)no1,"inconclusive: 0.891 µM [inhibitor, full curve, poor fit]"
20,N#Cc1c(-c2ccccc2)nc(SCC(=O)Nc2ccc(OC(F)(F)Cl)cc2)[nH]c1=O,"inconclusive: 44.7 µM [inhibitor, partial curve, poor fit]"
21,COc1cccc(NC(=O)c2cc(-c3ccccn3)nc3ccccc23)c1,inactive
22,Cc1sc2nc(CSc3ccccc3)nc(N3CCC(C(N)=O)CC3)c2c1C,"inconclusive: 39.8 µM [inhibitor, partial curve, poor fit]"

# Entries above that contain an aryl methoxy group:
row,SMILES,Potency
2,COc1ccc(C(=O)N[C@@H]2CCC[C@@H]2C(=O)NCCc2ccc(OC)c(OC)c2)cc1,"inconclusive: 12.6 µM [inhibitor, partial curve]"
18,CCCC(=O)NC(c1ccc(OC)c(OC)c1)c1cc(Cl)c2cccnc2c1O (stereo not drawn),"inconclusive: 112 µM [inhibitor, partial curve, poor fit]"
21,COc1cccc(NC(=O)c2cc(-c3ccccn3)nc3ccccc23)c1,inactive

# Later entries

row,SMILES,Potency
1,O=C(CSc1ccc(F)c(F)c1)Nc1ccc2c(c1)OCCCO2,"inconclusive: 50.1 µM [inhibitor, partial curve, poor fit]"
2,Cc1nc(SCc2ccc(F)cc2)c2oc3ccccc3c2n1,"inconclusive: 2.24 µM [inhibitor, partial curve, poor fit]"
3,C[C@H](CO)N1C[C@H](C)[C@@H](CN(C)C(=O)NC2CCCCC2)Oc2c(NC(=O)c3ccncc3)cccc2C1=O,"inconclusive: 79.4 µM [inhibitor, single point]"
4,CC(=O)NC(c1ccc(C(C)C)cc1)c1c(O)ccc2ccccc12 (stereo not drawn),"inconclusive: 1.26 µM [inhibitor, partial curve, poor fit]"
5,Fc1ccc(N/N=C/c2ccccc2Br)c(F)c1,"inconclusive: 14.1 µM [inhibitor, partial curve, poor fit]"
6,O/N=C1\CCc2cc(Cl)ccc21,inactive
7,Cc1ccc2c3c(c(SCC(=O)Nc4nonc4C)nc2c1)CCCC3,inactive
8,CCc1ccc(NC(=O)C2CCN(c3ncnc4c3sc3ncccc34)CC2)cc1,inactive
9,O=c1cc(O)nc(SCc2ccccc2)n1-c1ccccc1,"inconclusive: 79.4 µM [inhibitor, single point]"
10,O=C(NCC1CCCO1)c1coc2nc3ccccc3nc12 (stereo not drawn),"inconclusive: 56.2 µM [inhibitor, single point]"
11,CC1(C)CC(N=Cc2ccccc2O)CC(C)(C)N1,"inconclusive: 39.8 µM [inhibitor, partial curve, poor fit]"
12,COCCCNC(=O)c1cc(-c2cccc(C)c2)nc2ccccc12,inactive
13,CCCCNC(=S)NCc1ccc2c(c1)cc(C)n2C,active: 39.8 µM
14,Cc1cccnc1NC(=O)CCc1ncc(-c2ccccc2)o1,"inconclusive: 31.6 µM [inhibitor, single point]"
15,COc1cccc2c(C(C(=O)O)N3CCN(C(=O)OC(C)(C)C)CC3)c[nH]c12 (stereo not drawn),"inconclusive: 50.1 µM [inhibitor, partial curve, poor fit]"
16,Cc1ccc(N2C(=O)/C(=C\c3ccc(C(C)C)cc3)N=C2SC2CCOC2=O)cc1 (stereo not drawn),"inconclusive: 50.1 µM [inhibitor, partial curve, poor fit]"
17,Cc1ccc(/C=N/Nc2nncn2N)cc1,"inconclusive: 3.55 µM [inhibitor, full curve, poor fit]"
18,COc1cccc(-c2cccc3c2NC(=O)C3(C)Cc2ccccc2F)c1 (stereo not drawn),inactive
19,O=[N+]([O-])C(=C1Nc2ccccc2N1)C(Cl)=C(Cl)Cl,"inconclusive: 35.5 µM [inhibitor, partial curve]"
20,Clc1cc(Cl)c(N/N=C/c2ccccc2Br)c(Cl)c1,"inconclusive: 5.01 µM [inhibitor, full curve, poor fit]"
21,COc1ccc2[nH]cc(C(C(=O)O)N3CCN(C4=Nc5ccccc5Oc5ccccc54)CC3)c2c1 (stereo not drawn),"inconclusive: 70.8 µM [inhibitor, partial curve, poor fit]"
